Results published in publication PMC4920147.
Results are given in words; binding and its absence hold for the method and conditions named. Some entries that bind do so weakly or less than the wild type.

Legend:
[1] = target: T1, RelA (mouse (endogenous in E11)), Q04207; assay: native gel or EMSA; supershift: nuclear extracts of TNFα-treated E11 podocytes incubated with antibodies against RelA, p50 or p52 prior to addition of radiolabelled κB DNA probe (HIV LTR or CD80 promoter); settings: remark: other sources report otherwise
T1 chain: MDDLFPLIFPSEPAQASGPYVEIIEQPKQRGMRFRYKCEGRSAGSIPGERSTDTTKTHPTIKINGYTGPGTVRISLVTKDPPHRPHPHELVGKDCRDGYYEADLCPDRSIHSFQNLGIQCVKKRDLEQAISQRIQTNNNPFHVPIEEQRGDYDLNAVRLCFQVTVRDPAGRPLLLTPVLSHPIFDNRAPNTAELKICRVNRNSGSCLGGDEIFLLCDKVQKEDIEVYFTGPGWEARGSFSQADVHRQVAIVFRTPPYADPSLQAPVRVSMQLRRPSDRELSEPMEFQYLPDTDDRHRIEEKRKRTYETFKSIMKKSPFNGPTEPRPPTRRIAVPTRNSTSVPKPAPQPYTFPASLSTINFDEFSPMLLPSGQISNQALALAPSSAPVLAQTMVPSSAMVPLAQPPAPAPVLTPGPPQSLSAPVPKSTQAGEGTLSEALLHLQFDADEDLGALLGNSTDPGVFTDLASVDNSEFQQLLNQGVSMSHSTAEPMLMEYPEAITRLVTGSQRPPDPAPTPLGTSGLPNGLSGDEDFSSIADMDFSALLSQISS

[2] = target: RelA (mouse (endogenous in E11)) (UniProt Q04207); assay: as above

B1: p50, P25799 1-431 (protein)
chain: MADDDPYGTGQMFHLNTALTHSIFNAELYSPEIPLSTDGPYLQILEQPKQRGFRFRYVCEGPSHGGLPGASSEKNKKSYPQVKICNYVGPAKVIVQLVTNGKNIHLHAHSLVGKHCEDGVCTVTAGPKDMVVGFANLGILHVTKKKVFETLEARMTEACIRGYNPGLLVHSDLAYLQAEGGGDRQLTDREKEIIRQAAVQQTKEMDLSVVRLMFTAFLPDSTGSFTRRLEPVVSDAIYDSKAPNASNLKIVRMDRTAGCVTGGEEIYLLCDKVQKDDIQIRFYEEEENGGVWEGFGDFSPTDVHRQFAIVFKTPKYKDVNITKPASVFVQLRRKSDLETSEPKPFLYYPEIKDKEEVQRKRQKLMPNFSDSFGGGSGAGAGGGGMFGSGGGGGSTGSPGPGYGYSNYGFPPYGGITFHPGVTKSNAGVTHG
In the case of B1, the binding [1] is reported as “binds”.

B2: p52 (protein, UniProt Q9WTK5 1-454)
chain: MDNCYDPGLDGIPEYDDFEFSPSIVEPKDPAPETADGPYLVIVEQPKQRGFRFRYGCEGPSHGGLPGASSEKGRKTYPTVKICNYEGPAKIEVDLVTHSDPPRAHAHSLVGKQCSELGVCAVSVGPKDMTAQFNNLGVLHVTKKNMMEIMIQKLQRQRLRSKPQGLTEAERRELEQEAKELKKVMDLSIVRLRFSAFLRASDGSFSLPLKPVISQPIHDSKSPGASNLKISRMDKTAGSVRGGDEVYLLCDKVQKDDIEVRFYEDDENGWQAFGDFSPTDVHKQYAIVFRTPPYHKMKIERPVTVFLQLKRKRGGDVSDSKQFTYYPLVEDKEEVQRKRRKALPTFSQPFGGGSHMGGGSGGSAGGYGGAGGGGSLGFFSSSLAYNPYQSGAAPMGCYPGGGGGAQMAGSRRDTDAGEGAEEPRTPPEAPQGEPQALDTLQRAREYNARLFGLA
With B2 the binding [2] was “binds”.
